No constants are given. Whether binding was seen depends on the method and setting. In cells and extracts the contact can be indirect. Some results given as binding are weak or reduced against the parent protein; the word gives no strength.
Key:
Flag-tagged REGγ = Flag-tagged REGγ (UniProt P61289); experiment: co-IP; 293T cells transiently transfected with Flag-REGγ and HA-CK1ε; precipitation with Flag beads, western blot
HA-tagged CK1ε = HA-tagged CK1ε (UniProt P49674); experiment: co-IP; 293T cells transiently transfected with Flag-REGγ and HA-CK1ε; reciprocal precipitation with HA beads, western blot

Sequences of proteins named here, by UniProt entry; tags and fusion partners are left off.
UniProt P61289: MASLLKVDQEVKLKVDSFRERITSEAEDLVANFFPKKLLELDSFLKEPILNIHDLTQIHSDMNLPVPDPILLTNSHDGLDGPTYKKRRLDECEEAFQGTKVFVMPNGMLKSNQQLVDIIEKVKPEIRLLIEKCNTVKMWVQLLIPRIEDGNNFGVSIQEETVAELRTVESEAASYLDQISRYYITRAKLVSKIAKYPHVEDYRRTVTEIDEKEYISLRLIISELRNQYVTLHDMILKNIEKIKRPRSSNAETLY
UniProt P49674: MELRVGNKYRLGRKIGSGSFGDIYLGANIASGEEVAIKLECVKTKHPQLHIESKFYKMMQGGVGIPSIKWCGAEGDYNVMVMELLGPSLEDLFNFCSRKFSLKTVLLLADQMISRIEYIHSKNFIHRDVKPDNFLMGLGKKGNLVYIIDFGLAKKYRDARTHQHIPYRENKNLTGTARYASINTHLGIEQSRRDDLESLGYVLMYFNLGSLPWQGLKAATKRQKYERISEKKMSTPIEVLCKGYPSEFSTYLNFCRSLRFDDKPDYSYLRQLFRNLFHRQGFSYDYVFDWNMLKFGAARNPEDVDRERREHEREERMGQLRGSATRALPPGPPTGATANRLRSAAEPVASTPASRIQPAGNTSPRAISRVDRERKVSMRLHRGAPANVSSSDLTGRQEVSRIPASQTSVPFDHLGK

HA-tagged CK1ε (from UniProt P49674 1-416)
binding (Flag-tagged REGγ): binds

Flag-tagged REGγ (from UniProt P61289 1-254)
binding (HA-tagged CK1ε): binds
